Experimental data: paper PMC8173155
These are yes or no findings as the source states them, for the method shown. Binding seen in cells or lysates may run through a third protein. Some results given as binding are weak or reduced against the parent protein; the word gives no strength.

The chains behind the UniProt entries cited, without tags or fusion partners. Residues count along the entry.
UniProt P11021, residues 19-654: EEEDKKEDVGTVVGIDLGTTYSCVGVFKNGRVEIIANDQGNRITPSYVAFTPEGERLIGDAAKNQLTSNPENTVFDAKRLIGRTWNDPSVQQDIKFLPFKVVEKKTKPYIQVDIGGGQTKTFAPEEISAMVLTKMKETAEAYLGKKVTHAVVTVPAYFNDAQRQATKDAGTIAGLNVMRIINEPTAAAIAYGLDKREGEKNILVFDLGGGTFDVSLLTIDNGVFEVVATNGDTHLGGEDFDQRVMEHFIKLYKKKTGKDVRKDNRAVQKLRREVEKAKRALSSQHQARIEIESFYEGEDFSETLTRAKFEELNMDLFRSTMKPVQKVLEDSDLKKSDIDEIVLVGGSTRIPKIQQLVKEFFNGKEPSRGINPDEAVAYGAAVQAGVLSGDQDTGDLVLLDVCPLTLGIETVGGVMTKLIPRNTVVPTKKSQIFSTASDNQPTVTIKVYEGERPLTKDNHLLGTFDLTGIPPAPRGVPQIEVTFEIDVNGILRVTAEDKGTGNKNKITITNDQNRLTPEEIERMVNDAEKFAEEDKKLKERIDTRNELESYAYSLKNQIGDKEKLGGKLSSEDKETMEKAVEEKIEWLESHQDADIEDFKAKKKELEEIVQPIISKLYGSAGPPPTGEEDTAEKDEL

Columns and labels:
[1] = target: T1, osteoprotegerin (OPG) (human (endogenous in SUM149PT and SUM190PT)) (UniProt O00300); experiment: co-IP; lysates of SUM149PT and SUM190PT cells; immunoprecipitation with anti-OPG antibody (anti-IgG antibody as control), Western blot with anti-BiP/GRP78 antibody
T1 sequence: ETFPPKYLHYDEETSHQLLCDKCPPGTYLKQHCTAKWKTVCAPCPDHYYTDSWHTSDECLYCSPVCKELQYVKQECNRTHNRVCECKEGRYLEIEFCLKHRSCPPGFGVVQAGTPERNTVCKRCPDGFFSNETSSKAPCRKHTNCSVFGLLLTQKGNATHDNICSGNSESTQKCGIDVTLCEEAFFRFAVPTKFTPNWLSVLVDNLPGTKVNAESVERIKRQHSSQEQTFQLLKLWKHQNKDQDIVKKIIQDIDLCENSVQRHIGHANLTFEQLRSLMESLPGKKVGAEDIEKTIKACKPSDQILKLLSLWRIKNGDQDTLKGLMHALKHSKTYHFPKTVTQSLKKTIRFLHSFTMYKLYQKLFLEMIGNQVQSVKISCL

[2] = target: T1, osteoprotegerin (OPG) (human (endogenous in SUM149PT and SUM190PT)); experiment: proximity ligation; DuoLink PLA on fixed, permeabilized SUM149PT and SUM190PT cells; primary antibodies from different species against OPG and BiP/GRP78; red fluorescent probe

binding [1]: binds | binding [2]: binds
Substance: GRP78/BiP (glucose-regulated protein/Binding immunoglobulin protein) (from UniProt P11021 19-654)
